Among the data in PMC12752613 are binding values, retold here.

Protein sequences, listed by entry. Tags and fused reporters are not part of them. Lines headed by an entry give the natural chain unless they say otherwise; changes in a name come on top.
UniProt P05556: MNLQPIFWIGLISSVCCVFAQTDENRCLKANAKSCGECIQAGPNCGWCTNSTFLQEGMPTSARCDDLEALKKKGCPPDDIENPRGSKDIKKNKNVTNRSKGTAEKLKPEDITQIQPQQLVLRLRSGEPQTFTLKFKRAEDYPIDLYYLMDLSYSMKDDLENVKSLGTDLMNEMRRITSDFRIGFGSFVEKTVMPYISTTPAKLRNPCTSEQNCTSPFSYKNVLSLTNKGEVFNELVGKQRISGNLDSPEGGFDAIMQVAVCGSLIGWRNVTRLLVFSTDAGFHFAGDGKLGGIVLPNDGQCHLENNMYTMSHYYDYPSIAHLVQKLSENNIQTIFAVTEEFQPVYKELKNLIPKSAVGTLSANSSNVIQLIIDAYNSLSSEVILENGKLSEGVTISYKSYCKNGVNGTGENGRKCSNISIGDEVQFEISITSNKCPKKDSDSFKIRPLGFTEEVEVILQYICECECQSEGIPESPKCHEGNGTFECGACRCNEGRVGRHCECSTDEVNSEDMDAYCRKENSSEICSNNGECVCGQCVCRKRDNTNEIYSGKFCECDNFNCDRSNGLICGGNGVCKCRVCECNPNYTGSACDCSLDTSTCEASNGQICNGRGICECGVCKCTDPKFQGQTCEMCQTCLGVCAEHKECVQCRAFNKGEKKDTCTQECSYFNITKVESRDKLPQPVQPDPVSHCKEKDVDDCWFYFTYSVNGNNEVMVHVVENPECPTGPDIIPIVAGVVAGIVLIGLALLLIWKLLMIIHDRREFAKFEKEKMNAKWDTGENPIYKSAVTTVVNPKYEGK

Results are given in words; binding and its absence hold for the method and conditions named. Binding seen in cells or lysates may run through a third protein. Some entries that bind do so weakly or less than the wild type.

The test has as its target T1, MUC15 (human (endogenous in Panc-1 and MiaPaca-2)) (UniProt Q8N387).
T1 sequence: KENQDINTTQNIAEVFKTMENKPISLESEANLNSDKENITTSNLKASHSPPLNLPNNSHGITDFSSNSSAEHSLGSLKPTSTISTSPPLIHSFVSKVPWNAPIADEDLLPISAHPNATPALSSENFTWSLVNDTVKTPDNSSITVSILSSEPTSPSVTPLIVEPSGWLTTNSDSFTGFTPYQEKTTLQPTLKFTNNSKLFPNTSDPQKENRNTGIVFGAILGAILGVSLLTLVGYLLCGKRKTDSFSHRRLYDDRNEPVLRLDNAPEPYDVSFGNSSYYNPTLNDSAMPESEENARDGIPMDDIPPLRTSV
Briefly: co-IP; Panc-1 and MiaPaca-2 cell lysates (150 mM NaCl, 10 mM Tris-HCl pH 7.4, 1 mM EDTA, 1 mM EGTA, 1% Triton X-100, 0.5% NP-40); overnight with 2 µg anti-MUC15 or integrin β1 antibody at 4 °C, Protein A/G agarose, SDS-PAGE.

Regarding “integrin β1 (from UniProt P05556 21-798) (receptor)”, the binding entry is on record as “binds”.
